In article doi:10.1101/2023.08.18.553817 one finds binding data, which are given here for 2 molecules.

Protein sequences, listed by entry. Tags and fused reporters are not part of them. Lines headed by an entry give the natural chain unless they say otherwise; changes in a name come on top. Chains listed by the source or under a name are the forms on record and can include a tag or linker. Residues count along the entry.
FLAG-TAX1BP1^CC1 (WT) (Q86VP1, residues 147-343): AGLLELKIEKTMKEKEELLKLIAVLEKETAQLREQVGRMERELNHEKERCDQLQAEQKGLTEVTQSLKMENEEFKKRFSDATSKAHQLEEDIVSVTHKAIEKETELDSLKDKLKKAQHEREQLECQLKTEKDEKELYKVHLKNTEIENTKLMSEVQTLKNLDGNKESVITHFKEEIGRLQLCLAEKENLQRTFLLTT
FLAG-TAX1BP1^CC1 (K248E) (Q86VP1, form named): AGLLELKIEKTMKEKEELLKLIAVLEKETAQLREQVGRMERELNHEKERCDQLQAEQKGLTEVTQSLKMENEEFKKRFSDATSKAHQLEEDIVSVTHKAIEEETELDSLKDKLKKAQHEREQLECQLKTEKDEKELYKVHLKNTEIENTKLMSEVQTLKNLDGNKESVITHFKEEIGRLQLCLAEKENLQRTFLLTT

Results are given in words; binding and its absence hold for the method and conditions named. In cells and extracts the contact can be indirect. Some entries that bind do so weakly or less than the wild type.

The target of assay [1] is FLAG-TAX1BP1^CC1 (K248E) (human) (UniProt Q86VP1). Put plainly: co-IP.
The target in assay [2] is FLAG-TAX1BP1^CC1 (WT) (human) (UniProt Q86VP1). The assay is described as follows: co-IP.

B1: ATG9A (protein, UniProt Q7Z3C6 1-839)
chain: MAQFDTEYQRLEASYSDSPPGEEDLLVHVAEGSKSPWHHIENLDLFFSRVYNLHQKNGFTCMLIGEIFELMQFLFVVAFTTFLVSCVDYDILFANKMVNHSLHPTEPVKVTLPDAFLPAQVCSARIQENGSLITILVIAGVFWIHRLIKFIYNICCYWEIHSFYLHALRIPMSALPYCTWQEVQARIVQTQKEHQICIHKRELTELDIYHRILRFQNYMVALVNKSLLPLRFRLPGLGEAVFFTRGLKYNFELILFWGPGSLFLNEWSLKAEYKRGGQRLELAQRLSNRILWIGIANFLLCPLILIWQILYAFFSYAEVLKREPGALGARCWSLYGRCYLRHFNELEHELQSRLNRGYKPASKYMNCFLSPLLTLLAKNGAFFAGSILAVLIALTIYDEDVLAVEHVLTTVTLLGVTVTVCRSFIPDQHMVFCPEQLLRVILAHIHYMPDHWQGNAHRSQTRDEFAQLFQYKAVFILEELLSPIVTPLILIFCLRPRALEIIDFFRNFTVEVVGVGDTCSFAQMDVRQHGHPQWLSAGQTEASVYQQAEDGKTELSLMHFAITNPGWQPPRESTAFLGFLKEQVQRDGAAASLAQGGLLPENALFTSIQSLQSESEPLSLIANVVAGSSCRGPPLPRDLQGSRHRAEVASALRSFSPLQPGQAPTGRAHSTMTGSGVDARTASSGSSVWEGQLQSLVLSEYASTEMSLHALYMHQLHKQQAQAEPERHVWHRRESDESGESAPDEGGEGARAPQSIPRSASYPCAAPRPGAPETTALHGGFQRRYGGITDPGTVPRVPSHFSRLPLGGWAEDGQSASRHPEPVPEEGSEDELPPQVHKV
Turning to B1, the binding entry in assay [1] and in assay [2] was “no binding” each time.

B2: SCAMP3 (protein, UniProt O14828 1-347)
chain: MAQSRDGGNPFAEPSELDNPFQDPAVIQHRPSRQYATLDVYNPFETREPPPAYEPPAPAPLPPPSAPSLQPSRKLSPTEPKNYGSYSTQASAAAATAELLKKQEELNRKAEELDRRERELQHAALGGTATRQNNWPPLPSFCPVQPCFFQDISMEIPQEFQKTVSTMYYLWMCSTLALLLNFLACLASFCVETNNGAGFGLSILWVLLFTPCSFVCWYRPMYKAFRSDSSFNFFVFFFIFFVQDVLFVLQAIGIPGWGFSGWISALVVPKGNTAVSVLMLLVALLFTGIAVLGIVMLKRIHSLYRRTGASFQKAQQEFAAGVFSNPAVRTAAANAAAGAAENAFRAP
As to B2, the binding entry in assay [2] is on record as “binds”.
